PubChem BioAssay AID493014 (National Center for Advancing Translational Sciences (NCATS), 2011)
The campaign covered roughly 340,000 compounds. About 170 (0.05%) were called active. Inconclusive results, whose numbers are uncertain, are shown with a selection of clear calls. Calls come from the whole dose curve; as a rule, active = well fitted inhibition curve with a large enough effect in the signal ratio, with a control signal flat (not every such curve was filed as active); inconclusive = small, poorly fitted or top-dose-only effect, or effect the other way, or a change in a side signal; inactive = flat fitted curve, though single readings scatter; the % refers to the signal ratio. A potency beside an inconclusive call is a rough fit, not a confirmed value.

Experiment: qHTS Assay to Find Inhibitors of Chronic Active B-Cell Receptor Signaling;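 for activity change, negative = inhibition: plate controls were basal doxycycline-induced cells for no effect and cells given 10 µM MG132 for full effect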
Settings: ABC-DLBCL IkBa-CBG/CBR reporter, luminescence ratio (green luciferase fused to IkBa over red control in TMD8 lymphoma cells), 4 h; activity change, negative = inhibition: at 46.1 µM (top of the series) unless noted
Procedure, shortened: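 Doxycycline induced both beetle luciferases in TMD8 lymphoma cells; IKK-driven degradation limits the IkappaBalpha-fused green signal, while red luminescence normalises for cell number and nonspecific effects. Compounds tested up to 46 uM, 4 hrs.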
Potency is the fitted concentration of half-maximal effect.

Row | Compound | activity change, negative = inhibition | Potency
1 | CC(Cc1c[nH]c2ccccc12)NC(=O)C1CCCNC1=O (stereo not given) | inconclusive: -3.08% | –
2 | CCN(CC(=O)Nc1ccc(NC(C)=O)cc1)C(=O)/C=C/c1cn(Cc2ccccc2)nc1-c1cccnc1 | inconclusive: -3.51% | –
3 | COc1ccc(CCc2nc(-c3cccs3)no2)cc1 | inconclusive: 0.694% | –
4 | Cc1cccc(NC(=O)CSc2nc(=O)n(Cc3cccnc3)c3c2CCC3)c1 | – | inconclusive: 12600 nM [falling, partial curve]
5 | CC12CCC(=O)N1C(C(=O)Nc1nc(-c3ccc(F)c(F)c3)cs1)CS2 (stereo not given) | inconclusive: 13.6% | –
6 | CCOC(=O)CNC(=O)c1ccc(SCC)cc1 | inactive: 4.09% | –
7 | Cc1cc(=O)oc2cc(NC(=S)NNC(=O)c3c(Cl)cnn3C)ccc12 | inconclusive: 11.1% | –
8 | COc1ccc2oc(C(=O)OCC(=O)N3CCN(S(=O)(=O)c4ccc(C)cc4)CC3)c(C)c2c1 | inconclusive: 7.8% | –
9 | CCOc1ccccc1OCCCC(=O)ON=C(N)c1ccccc1 | inconclusive: 7.19% | –
10 | COc1ccc(S(=O)(=O)N2CCN(C(=O)c3cc(-c4ccc(C)cc4)n[nH]3)CC2)cc1 | inactive: 0.39% | –
11 | O=C(CCCOc1ccccc1)Nc1cccc(C(=O)O)c1 | – | inconclusive: 6510 nM [falling, single point]
12 | C=CCNC(=S)N/N=C/c1cn(C)c2ccccc12 | – | active: 17800 nM
13 | CC(=O)N(Nc1ccccc1)c1ccccc1 | inconclusive: 4.87% | –
14 | CC1=Nc2ccccc2N=C(NC(=O)c2ccccc2)C1c1ccc(Cl)cc1 (stereo not given) | inconclusive: 1.19% | –
15 | COc1ccc(NC(=O)c2cccc(N3C(=O)C4C5C=CC(C6CC56)C4C3=O)c2)cc1 (stereo not given) | inactive: 0.0467% | –
16 | COc1cc(NC(=O)C/C(C)=N/NC(=O)C(OC)c2ccccc2)c(OC)cc1Cl (stereo not given) | inconclusive: -11.4% | –
17 | O=C(Nc1ccc2[nH]c(=O)[nH]c2c1)c1ccc([N+](=O)[O-])o1 | inactive: -1.85% | –
18 | Cc1cc(C)nc(SCc2nnc(SCC(=O)N3CCCc4ccccc43)o2)n1 | inconclusive: -1.34% | –
19 | N#C[C@H]1[C@H](c2ccccc2)[C@](C#N)(C(=O)c2ccccc2)[C@@H]2C=Cc3ccccc3N21 | inconclusive: 2.93% | –
20 | O=C(c1ccc(CS(=O)(=O)c2ccc(Br)cc2)o1)N1CCCCCC1 | inactive: 13.8% | –
21 | Cc1nn(C)cc1/C=C/C(=O)c1ccc(O)cc1 | – | inconclusive: 23100 nM [falling, single point]
22 | CCc1sc(C(=O)Nc2ccc(N3CCOCC3)cc2)cc1C | inconclusive: -0.458% | –
23 | CCOc1ccc(-c2noc(-c3cccnc3)n2)cc1OC | inconclusive: -0.996% | –
24 | O=C(CSc1nnc2c(n1)[nH]c1ccccc12)Nc1cccc(S(=O)(=O)N2CCOCC2)c1 | inconclusive: -1.51% | –
25 | C/C(CCc1oc2ccccc2c1-c1ccc(C)o1)=N/O | inconclusive: -9.66% | –
26 | COc1ccccc1NC(=O)c1cc(S(=O)(=O)NC2CCCC2)ccc1F | inactive: -2.48% | –
27 | COc1cc(-c2nc3cccc(C)n3c2NCC2CCCO2)ccc1O (stereo not given) | inactive: -15.4% | –
28 | Cc1ccc(C(C)C)c(OCc2nnc3n2CCCCC3)c1 | inconclusive: -2.11% | –

Row | Compound | activity change, negative = inhibition | Potency
29 | Cc1cc2ccccc2n1CCNC(=O)c1ccc(S(=O)(=O)N2CCOCC2)cc1 | inactive: 0.809% | –
30 | COc1ccc(NC(=O)c2ccco2)cc1NC(=O)c1ccco1 | inconclusive: -1.46% | –
31 | Cc1cccc(NC(=O)CSc2ncnc3sc(C)cc23)c1 | – | inconclusive: 2510 nM [falling, partial curve]
32 | Cc1cc(SCC(=O)NCc2ccc(F)cc2)nc(=O)[nH]1 | inactive: 10.2% | –
33 | CN(CC(=O)Nc1cccc(F)c1)CC(=O)Nc1cccc(S(=O)(=O)N2CCCCC2)c1 | inactive: 4.6% | –
34 | COc1cc(O)c2c(=O)c3c(O)ccc(O)c3oc2c1 | – | inconclusive: 517 nM [rising, full curve, poor fit]
35 | CCOC(=O)c1nnsc1NC(C)=O | inconclusive: 0.537% | –
36 | Cc1nnc(C)n1/N=C/c1cc(Br)cc(Br)c1O | inactive: 3.32% | –
37 | COC(=O)Nc1nnc(SCc2ccc(C)cc2)s1 | inconclusive: 10.8% | –
38 | CCC(CC)c1nnc(NC(=O)c2nc3nc(C)cc(C)n3n2)s1 | inactive: -5.47% | –
39 | CC(=O)c1cccc(NC(=O)N2CCCC2C(=O)NCc2ccc3c(c2)OCO3)c1 (stereo not given) | inconclusive: 24.6% | –
40 | Cc1ccc2nc(NCc3ccc(F)cc3)c3nncn3c2c1 | inconclusive: 9.85% | –
41 | Cc1cc(C(N)=O)nn1-c1c(Cl)cc(Cl)cc1Cl | inconclusive: -20.5% | –
42 | COc1cc(/C=C(\C#N)C(=O)Nc2cccc(C(=O)O)c2)ccc1OCc1ccc(F)cc1 | inconclusive: -15.8% | –
43 | Cc1cc(OC(=O)c2cccc([N+](=O)[O-])c2)c(C)cc1CN1CCOCC1 | inactive: 6.03% | –
44 | COc1ccc(NC(=O)c2cc(C(C)C)on2)c(OC)c1 | inconclusive: -11% | –
45 | O=C(OCC1OC(n2ccc(=O)[nH]c2=O)C(O)C1OC(=O)c1ccccc1)c1ccccc1 (stereo not given) | – | inconclusive: 2310 nM [falling, partial curve]
46 | Cc1cc(C)c(NC(=O)CSc2nnc(CNC(=O)c3ccccc3F)o2)c(C)c1 | inconclusive: 8.13% | –
47 | Cc1noc(C)c1C(=O)N1CCN(CCc2ccccc2)CC1 | inconclusive: 8.51% | –
48 | O=C(NC(CCl)c1ccccc1)c1ccc(Cl)cc1 (stereo not given) | inconclusive: 4.13% | –
49 | CCC(=O)NC(=S)Nc1ccc(-c2nc3ccccc3s2)cc1 | inconclusive: 3.93% | –
50 | COc1cc(OC)cc(C(=O)NCCOC23CC4CC(CC(C4)C2)C3)c1 | inconclusive: 1.29% | –
51 | CC(NC(=O)C(=O)N/N=C\c1ccc([N+](=O)[O-])cc1)c1ccccc1 (stereo not given) | inconclusive: -0.4% | –
52 | CCOC(=O)c1ccc(N2C(=O)C3C(C2=O)C(C(=O)c2ccc(Cl)cc2)N2CCCC32)cc1 (stereo not given) | inconclusive: -20% | –
53 | COc1ccc(CCNC(=O)c2cc3c(=O)n(C)c4ccccc4c3n2C)cc1OC | inconclusive: 3.66% | –
54 | O=C(O)Cn1cc(C(=S)N2CCOCC2)c2ccccc21 | – | inconclusive: 184 nM [falling, full curve, poor fit]
55 | CCOC(=O)c1c(C)n(C)c2ccc(OCC(O)Cn3c(C)nc4ccccc43)cc12 (stereo not given) | – | inconclusive: 2060 nM [falling, partial curve, poor fit]

3 entries from above, ordered by number of heavy atoms, descending.
Row | Compound | activity change, negative = inhibition | Potency
55 | CCOC(=O)c1c(C)n(C)c2ccc(OCC(O)Cn3c(C)nc4ccccc43)cc12 (stereo not given) | – | inconclusive: 2060 nM [falling, partial curve, poor fit]
46 | Cc1cc(C)c(NC(=O)CSc2nnc(CNC(=O)c3ccccc3F)o2)c(C)c1 | inconclusive: 8.13% | –
48 | O=C(NC(CCl)c1ccccc1)c1ccc(Cl)cc1 (stereo not given) | inconclusive: 4.13% | –
